Assay results: ChEMBL document CHEMBL4316593 (Eur J Med Chem, 2019)
The source gives many values for each of these; only a part stands here.

Legend:
Assay type in all cases: cell-based
Settings in all cases: U-87MG ATCC
[1] = Inhibition of RTK/PI3K/AKT/mTOR signaling in human U87 cells assessed as down regulation of CAT gene expression at cytotoxic IC50 measured after 48 hrs relative to control
[2] = Inhibition of RTK/PI3K/AKT/mTOR signaling in human U87 cells assessed as down regulation of AFF1 gene expression at cytotoxic IC50 measured after 48 hrs relative to control
[3] = Inhibition of RTK/PI3K/AKT/mTOR signaling in human U87 cells assessed as up regulation of cellular retinoic acid binding protein 2 gene expression at cytotoxic IC50 measured after 48 hrs relative to control
[4] = Inhibition of RTK/PI3K/AKT/mTOR signaling in human U87 cells assessed as down regulation of C21orf91 gene expression at cytotoxic IC50 measured after 48 hrs relative to control
[5] = Inhibition of RTK/PI3K/AKT/mTOR signaling in human U87 cells assessed as down regulation of ZNF92 gene expression at cytotoxic IC50 measured after 48 hrs relative to control
[6] = Inhibition of RTK/PI3K/AKT/mTOR signaling in human U87 cells assessed as down regulation of GABARAPL1 gene expression at cytotoxic IC50 measured after 48 hrs relative to control
[7] = Inhibition of RTK/PI3K/AKT/mTOR signaling in human U87 cells assessed as down regulation of ZNF431 gene expression at cytotoxic IC50 measured after 48 hrs relative to control
[8] = Inhibition of RTK/PI3K/AKT/mTOR signaling in human U87 cells assessed as up regulation of PFKM gene expression at cytotoxic IC50 measured after 48 hrs relative to control
[9] = Inhibition of RTK/PI3K/AKT/mTOR signaling in human U87 cells assessed as down regulation of DR1 gene expression at cytotoxic IC50 measured after 48 hrs relative to control
[10] = Inhibition of RTK/PI3K/AKT/mTOR signaling in human U87 cells assessed as down regulation of TNFAIP3 gene expression at cytotoxic IC50 measured after 48 hrs relative to control
[11] = Inhibition of RTK/PI3K/AKT/mTOR signaling in human U87 cells assessed as down regulation of ANKFY1 gene expression at cytotoxic IC50 measured after 48 hrs relative to control
[12] = Inhibition of RTK/PI3K/AKT/mTOR signaling in human U87 cells assessed as down regulation of MGEA5 gene expression at cytotoxic IC50 measured after 48 hrs relative to control
[13] = Inhibition of RTK/PI3K/AKT/mTOR signaling in human U87 cells assessed as down regulation of BRPF1 gene expression at cytotoxic IC50 measured after 48 hrs relative to control
[14] = Inhibition of RTK/PI3K/AKT/mTOR signaling in human U87 cells assessed as down regulation of AURKB gene expression at cytotoxic IC50 measured after 48 hrs relative to control
[15] = Inhibition of RTK/PI3K/AKT/mTOR signaling in human U87 cells assessed as up regulation of Jun dimerization protein 2 gene expression at cytotoxic IC50 measured after 48 hrs relative to control
[16] = Inhibition of RTK/PI3K/AKT/mTOR signaling in human U87 cells assessed as up regulation of chromosome 16 open reading frame 52 gene expression at cytotoxic IC50 measured after 48 hrs relative to control
[17] = Inhibition of RTK/PI3K/AKT/mTOR signaling in human U87 cells assessed as up regulation of QKI, KH domain containing RNA binding gene expression at cytotoxic IC50 measured after 48 hrs relative to control
[18] = Inhibition of RTK/PI3K/AKT/mTOR signaling in human U87 cells assessed as down regulation of EXOG gene expression at cytotoxic IC50 measured after 48 hrs relative to control
[19] = Inhibition of RTK/PI3K/AKT/mTOR signaling in human U87 cells assessed as down regulation of PDCD10 gene expression at cytotoxic IC50 measured after 48 hrs relative to control
[20] = Inhibition of RTK/PI3K/AKT/mTOR signaling in human U87 cells assessed as up regulation of CUEDC1 gene expression at cytotoxic IC50 measured after 48 hrs relative to control
[21] = Inhibition of RTK/PI3K/AKT/mTOR signaling in human U87 cells assessed as up regulation of C8orf58 gene expression at cytotoxic IC50 measured after 48 hrs relative to control
[22] = Inhibition of RTK/PI3K/AKT/mTOR signaling in human U87 cells assessed as down regulation of MAN2A1 gene expression at cytotoxic IC50 measured after 48 hrs relative to control
[23] = Inhibition of RTK/PI3K/AKT/mTOR signaling in human U87 cells assessed as up regulation of EH domain binding protein 1 gene expression at cytotoxic IC50 measured after 48 hrs relative to control
[24] = Inhibition of RTK/PI3K/AKT/mTOR signaling in human U87 cells assessed as down regulation of PIGK gene expression at cytotoxic IC50 measured after 48 hrs relative to control
[25] = Inhibition of RTK/PI3K/AKT/mTOR signaling in human U87 cells assessed as down regulation of PTGS2 gene expression at cytotoxic IC50 measured after 48 hrs relative to control
[26] = Inhibition of RTK/PI3K/AKT/mTOR signaling in human U87 cells assessed as down regulation of RPRD1B gene expression at cytotoxic IC50 measured after 48 hrs relative to control
[27] = Inhibition of RTK/PI3K/AKT/mTOR signaling in human U87 cells assessed as down regulation of DHX36 gene expression at cytotoxic IC50 measured after 48 hrs relative to control
[28] = Inhibition of RTK/PI3K/AKT/mTOR signaling in human U87 cells assessed as down regulation of SYDE2 gene expression at cytotoxic IC50 measured after 48 hrs relative to control
[29] = Inhibition of RTK/PI3K/AKT/mTOR signaling in human U87 cells assessed as up regulation of interferon related developmental regulator 2 gene expression at cytotoxic IC50 measured after 48 hrs relative to control
[30] = Inhibition of RTK/PI3K/AKT/mTOR signaling in human U87 cells assessed as up regulation of DLG3 gene expression at cytotoxic IC50 measured after 48 hrs relative to control
[31] = Inhibition of RTK/PI3K/AKT/mTOR signaling in human U87 cells assessed as up regulation of lamin B receptor gene expression at cytotoxic IC50 measured after 48 hrs relative to control
[32] = Inhibition of RTK/PI3K/AKT/mTOR signaling in human U87 cells assessed as up regulation of phosphatidylinositol glycan anchor biosynthesis class V gene expression at cytotoxic IC50 measured after 48 hrs relative to control

CC(=O)C(=NNc1ccccc1C#N)C(C)=O
log2FC [1]: -0.557 | log2FC [2]: -0.944 | log2FC [3]: 1.15 | log2FC [4]: -0.769 | log2FC [5]: -2.41 | log2FC [6]: -0.474 | log2FC [7]: -1.65 | log2FC [8]: 0.609 | log2FC [9]: -0.569 | log2FC [10]: -1.15 | log2FC [11]: -0.558 | log2FC [12]: -0.858 | log2FC [13]: -1.19 | log2FC [14]: -0.884 | log2FC [15]: 1.46 | log2FC [16]: 0.839 | log2FC [17]: 0.858 | log2FC [18]: -1.72 | log2FC [19]: -0.661 | log2FC [20]: 0.583 | log2FC [21]: 2.43 | log2FC [22]: -0.534 | log2FC [23]: 1.43 | log2FC [24]: -0.958 | log2FC [25]: -1.91 | log2FC [26]: -0.712 | log2FC [27]: -0.767 | log2FC [28]: -0.963 | log2FC [29]: 0.953 | log2FC [30]: 0.51 | log2FC [31]: 0.757 | log2FC [32]: 1.13
